The record followed here is PMC7072349.

Results are given in words; binding and its absence hold for the method and conditions named. Binding seen in cells or lysates may run through a third protein. Some entries that bind do so weakly or less than the wild type. Tags and fused reporters may be left off the sequences shown.

The test deals with T1, WT panx1a-dTomato-His (Danio rerio (zebrafish)) (UniProt Q7ZUN0).
T1 sequence: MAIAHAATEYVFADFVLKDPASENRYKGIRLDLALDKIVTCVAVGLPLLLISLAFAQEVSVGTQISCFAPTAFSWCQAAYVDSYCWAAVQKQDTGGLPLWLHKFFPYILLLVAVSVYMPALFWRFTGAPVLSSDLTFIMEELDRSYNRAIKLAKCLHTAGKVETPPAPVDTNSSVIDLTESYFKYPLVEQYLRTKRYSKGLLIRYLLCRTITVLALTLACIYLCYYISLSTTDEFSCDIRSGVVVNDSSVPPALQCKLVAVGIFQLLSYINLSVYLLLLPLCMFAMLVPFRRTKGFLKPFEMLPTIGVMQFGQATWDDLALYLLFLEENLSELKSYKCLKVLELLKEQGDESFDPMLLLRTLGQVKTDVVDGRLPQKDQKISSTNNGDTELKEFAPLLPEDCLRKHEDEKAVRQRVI
Briefly: pull-down; His60 Ni gravity column; native lysates of double-transfected Neuro 2a cells loaded and rocked at 4 °C for 1 h; His-tagged dTomato fusion held on the column; eluates blotted with anti-GFP and anti-His.

B1: WT panx1a-EYFP (Danio rerio pannexin 1a, wild type, EYFP-tagged) (protein, UniProt Q7ZUN0 1-417)
chain: MAIAHAATEYVFADFVLKDPASENRYKGIRLDLALDKIVTCVAVGLPLLLISLAFAQEVSVGTQISCFAPTAFSWCQAAYVDSYCWAAVQKQDTGGLPLWLHKFFPYILLLVAVSVYMPALFWRFTGAPVLSSDLTFIMEELDRSYNRAIKLAKCLHTAGKVETPPAPVDTNSSVIDLTESYFKYPLVEQYLRTKRYSKGLLIRYLLCRTITVLALTLACIYLCYYISLSTTDEFSCDIRSGVVVNDSSVPPALQCKLVAVGIFQLLSYINLSVYLLLLPLCMFAMLVPFRRTKGFLKPFEMLPTIGVMQFGQATWDDLALYLLFLEENLSELKSYKCLKVLELLKEQGDESFDPMLLLRTLGQVKTDVVDGRLPQKDQKISSTNNGDTELKEFAPLLPEDCLRKHEDEKAVRQRVI
For the molecule B1, the binding result is given as “binds”.
